According to patent publication US20220348665A1:
These are yes or no findings as the source states them, for the method shown. Sequences can lack the tags named with a protein.

Amino acid sequences for entries named in this document (tags omitted). Residues count along the entry.
UniProt P02769, residues 25-607: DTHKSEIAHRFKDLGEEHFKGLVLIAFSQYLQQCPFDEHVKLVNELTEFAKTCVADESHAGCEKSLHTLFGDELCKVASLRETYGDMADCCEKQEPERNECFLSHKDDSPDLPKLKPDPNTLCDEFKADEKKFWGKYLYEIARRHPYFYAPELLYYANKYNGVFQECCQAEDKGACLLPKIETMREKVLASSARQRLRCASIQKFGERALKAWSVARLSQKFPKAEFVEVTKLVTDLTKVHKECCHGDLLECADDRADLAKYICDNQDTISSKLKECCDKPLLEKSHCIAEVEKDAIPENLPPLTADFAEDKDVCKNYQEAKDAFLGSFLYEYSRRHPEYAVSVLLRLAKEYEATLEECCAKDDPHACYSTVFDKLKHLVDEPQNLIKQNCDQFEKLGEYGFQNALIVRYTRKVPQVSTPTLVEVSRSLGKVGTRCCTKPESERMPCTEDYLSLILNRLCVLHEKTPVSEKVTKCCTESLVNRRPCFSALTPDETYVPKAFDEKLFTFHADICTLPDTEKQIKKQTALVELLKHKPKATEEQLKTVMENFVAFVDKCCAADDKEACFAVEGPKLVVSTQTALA

Biological target: BSA (bovine) (UniProt P02769)
Assay: ELISA on coated protein, 5-fold dilutions from 20 nM, anti-human Fc HRP, Abs. at 450 nm

binding: no binding (tested: 20 nM)
B1: 1564 minibody (anti-IGF1R scFv of clone 1564 at the C-terminus of Fc) (Fc fusion, not shown: a dimerising Fc or GST)
chain: QSVLTQPPSASGTPGQRVTISCTGSSSNIGSNDVSWYQQLPGTAPKLLIYANSNRPSGVSDRFSGSKSGTSASLAISGLRSEDEADYYCGAWDDSLNGYVFGCGTKLTVLGGGGSGGGGSGGGGSGGGGSEVQLLESGGGLVQPGGSLRLSCAASGFTFSSYDMSWVRQAPGKCLEWVSAISYDNGNTYYADSVKGRFTISRDNSKNTLYLQMNSLRAEDTAVYYCAKGVLTTLMNWFDYWGQGTLVTVSS
